Measurements from ChEMBL document CHEMBL5674883, “The Heterochromatin Landscape in Migrating Cells and the Importance of H3K27me3 for Associated Transcriptome Alterations” (Cells, 2018).
This continues a long series; more values of the same kind are listed elsewhere.

The chains behind the UniProt entries cited, without tags or fusion partners.
UniProt Q61188, whole entry: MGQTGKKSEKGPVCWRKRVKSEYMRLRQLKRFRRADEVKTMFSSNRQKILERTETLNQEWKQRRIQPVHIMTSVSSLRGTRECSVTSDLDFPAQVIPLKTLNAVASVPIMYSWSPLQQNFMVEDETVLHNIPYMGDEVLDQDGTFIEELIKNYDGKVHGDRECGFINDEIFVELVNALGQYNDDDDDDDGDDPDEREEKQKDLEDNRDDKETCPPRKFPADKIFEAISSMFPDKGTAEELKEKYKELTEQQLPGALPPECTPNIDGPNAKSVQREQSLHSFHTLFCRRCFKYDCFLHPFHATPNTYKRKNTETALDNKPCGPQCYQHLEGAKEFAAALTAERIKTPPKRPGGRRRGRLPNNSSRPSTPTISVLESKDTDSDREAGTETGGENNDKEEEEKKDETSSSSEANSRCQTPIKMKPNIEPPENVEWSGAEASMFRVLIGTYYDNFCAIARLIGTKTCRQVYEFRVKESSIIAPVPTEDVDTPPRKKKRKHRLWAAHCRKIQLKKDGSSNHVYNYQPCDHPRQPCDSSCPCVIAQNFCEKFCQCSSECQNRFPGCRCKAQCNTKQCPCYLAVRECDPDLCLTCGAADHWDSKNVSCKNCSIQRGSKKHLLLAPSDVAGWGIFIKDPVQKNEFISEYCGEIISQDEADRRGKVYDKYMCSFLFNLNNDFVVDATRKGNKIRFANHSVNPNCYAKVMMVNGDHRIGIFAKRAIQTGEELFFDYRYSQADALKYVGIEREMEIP

What was measured:
Format in all cases: cell-based
[1] = molecular target: Histone-lysine N-methyltransferase EZH2 (Mus musculus) (UniProt Q61188); test: Inhibition of EZH2 in mouse B16-F1 migrating cells assessed as fold change in H3K27me3-dependent regulated Arrdc3-mRNA expression at 3 uM measured by ChIP-seq analysis relative to control cells
[2] = molecular target: Histone-lysine N-methyltransferase EZH2 (Mus musculus) (UniProt Q61188); test: Inhibition of EZH2 in mouse B16-F1 migrating cells assessed as fold change in H3K27me3-independent regulated Mis18bp1-mRNA expression at 3 uM measured by ChIP-seq analysis relative to control cells
[3] = molecular target: Histone-lysine N-methyltransferase EZH2 (Mus musculus) (UniProt Q61188); test: Inhibition of EZH2 in mouse B16-F1 migrating cells assessed as fold change in H3K27me3-buffered regulated Perp-mRNA expression at 3 uM measured by ChIP-seq analysis relative to control cells
[4] = molecular target: Histone-lysine N-methyltransferase EZH2 (Mus musculus) (UniProt Q61188); test: Inhibition of EZH2 in mouse B16-F1 migrating cells assessed as fold change in H3K27me3-buffered regulated Slc24a4-mRNA expression at 3 uM measured by ChIP-seq analysis relative to control cells
[5] = molecular target: Histone-lysine N-methyltransferase EZH2 (Mus musculus) (UniProt Q61188); test: Inhibition of EZH2 in mouse B16-F1 migrating cells assessed as fold change in H3K27me3-buffered regulated Gapdh-mRNA expression at 3 uM measured by ChIP-seq analysis relative to control cells
[6] = molecular target: Histone-lysine N-methyltransferase EZH2 (Mus musculus) (UniProt Q61188); test: Inhibition of EZH2 in mouse B16-F1 migrating cells assessed as fold change in H3K27me3-buffered regulated Ets1-mRNA expression at 3 uM measured by ChIP-seq analysis relative to control cells
[7] = molecular target: Histone-lysine N-methyltransferase EZH2 (Mus musculus) (UniProt Q61188); test: Inhibition of EZH2 in mouse B16-F1 migrating cells assessed as fold change in H3K27me3-buffered regulated Zfp692-mRNA expression at 3 uM measured by ChIP-seq analysis relative to control cells
[8] = molecular target: Histone-lysine N-methyltransferase EZH2 (Mus musculus) (UniProt Q61188); test: Inhibition of EZH2 in mouse B16-F1 migrating cells assessed as fold change in H3K27me3-buffered regulated Rsrc2-mRNA expression at 3 uM measured by ChIP-seq analysis relative to control cells
[9] = molecular target: Histone-lysine N-methyltransferase EZH2 (Mus musculus) (UniProt Q61188); test: Inhibition of EZH2 in mouse B16-F1 migrating cells assessed as fold change in H3K27me3-buffered regulated Fignl2-mRNA expression at 3 uM measured by ChIP-seq analysis relative to control cells
[10] = molecular target: Histone-lysine N-methyltransferase EZH2 (Mus musculus) (UniProt Q61188); test: Inhibition of EZH2 in mouse B16-F1 migrating cells assessed as fold change in H3K27me3-buffered regulated Bbs12-mRNA expression at 3 uM measured by ChIP-seq analysis relative to control cells
[11] = molecular target: Histone-lysine N-methyltransferase EZH2 (Mus musculus) (UniProt Q61188); test: Inhibition of EZH2 in mouse B16-F1 migrating cells assessed as fold change in H3K27me3-buffered regulated Pcdh17-mRNA expression at 3 uM measured by ChIP-seq analysis relative to control cells
[12] = molecular target: Histone-lysine N-methyltransferase EZH2 (Mus musculus) (UniProt Q61188); test: Inhibition of EZH2 in mouse B16-F1 migrating cells assessed as fold change in H3K27me3-buffered regulated Tceanc-mRNA expression at 3 uM measured by ChIP-seq analysis relative to control cells
[13] = molecular target: T1, RNA polymerase II (Mus musculus) (UniProt P08775+Q8CFI7+P97760+A0A3Q4L2S8+Q80UW8+P61219+P62488+Q923G2+P60898+O08740+Q63871+P62876); test: Inhibition of RNA polymerase II in mouse B16-F1 migrating cells assessed as fold change in Cbln3-RNA stability at 0.1 mM measured by ChIP-seq analysis relative to control cells
[14] = molecular target: T1, RNA polymerase II (Mus musculus); test: Inhibition of RNA polymerase II in mouse B16-F1 migrating cells assessed as fold change in Mt1-RNA stability at 0.1 mM measured by ChIP-seq analysis relative to control cells
[15] = molecular target: T1, RNA polymerase II (Mus musculus); test: Inhibition of RNA polymerase II in mouse B16-F1 migrating cells assessed as fold change in Mcrip1-RNA stability at 0.1 mM measured by ChIP-seq analysis relative to control cells
[16] = molecular target: T1, RNA polymerase II (Mus musculus); test: Inhibition of RNA polymerase II in mouse B16-F1 migrating cells assessed as fold change in Edf1-RNA stability at 0.1 mM measured by ChIP-seq analysis relative to control cells
[17] = molecular target: T1, RNA polymerase II (Mus musculus); test: Inhibition of RNA polymerase II in mouse B16-F1 migrating cells assessed as fold change in Itga5-RNA stability at 0.1 mM measured by ChIP-seq analysis relative to control cells
[18] = molecular target: T1, RNA polymerase II (Mus musculus); test: Inhibition of RNA polymerase II in mouse B16-F1 migrating cells assessed as fold change in Fez2-RNA stability at 0.1 mM measured by ChIP-seq analysis relative to control cells
[19] = molecular target: T1, RNA polymerase II (Mus musculus); test: Inhibition of RNA polymerase II in mouse B16-F1 migrating cells assessed as fold change in Vat1-RNA stability at 0.1 mM measured by ChIP-seq analysis relative to control cells
[20] = molecular target: T1, RNA polymerase II (Mus musculus); test: Inhibition of RNA polymerase II in mouse B16-F1 migrating cells assessed as fold change in Atp6v0b-RNA stability at 0.1 mM measured by ChIP-seq analysis relative to control cells
[21] = molecular target: T1, RNA polymerase II (Mus musculus); test: Inhibition of RNA polymerase II in mouse B16-F1 migrating cells assessed as fold change in Lypla2-RNA stability at 0.1 mM measured by ChIP-seq analysis relative to control cells
[22] = molecular target: T1, RNA polymerase II (Mus musculus); test: Inhibition of RNA polymerase II in mouse B16-F1 migrating cells assessed as fold change in Atp6v0a1-RNA stability at 0.1 mM measured by ChIP-seq analysis relative to control cells
[23] = molecular target: T1, RNA polymerase II (Mus musculus); test: Inhibition of RNA polymerase II in mouse B16-F1 migrating cells assessed as fold change in L2hgdh-RNA stability at 0.1 mM measured by ChIP-seq analysis relative to control cells
[24] = molecular target: T1, RNA polymerase II (Mus musculus); test: Inhibition of RNA polymerase II in mouse B16-F1 migrating cells assessed as fold change in Smug1-RNA stability at 0.1 mM measured by ChIP-seq analysis relative to control cells
[25] = molecular target: T1, RNA polymerase II (Mus musculus); test: Inhibition of RNA polymerase II in mouse B16-F1 migrating cells assessed as fold change in Cdk7-RNA stability at 0.1 mM measured by ChIP-seq analysis relative to control cells
[26] = molecular target: T1, RNA polymerase II (Mus musculus); test: Inhibition of RNA polymerase II in mouse B16-F1 migrating cells assessed as fold change in Top2b-RNA stability at 0.1 mM measured by ChIP-seq analysis relative to control cells
[27] = molecular target: T1, RNA polymerase II (Mus musculus); test: Inhibition of RNA polymerase II in mouse B16-F1 migrating cells assessed as fold change in Ift80-RNA stability at 0.1 mM measured by ChIP-seq analysis relative to control cells
[28] = molecular target: T1, RNA polymerase II (Mus musculus); test: Inhibition of RNA polymerase II in mouse B16-F1 migrating cells assessed as fold change in Trove2-RNA stability at 0.1 mM measured by ChIP-seq analysis relative to control cells
[29] = molecular target: T1, RNA polymerase II (Mus musculus); test: Inhibition of RNA polymerase II in mouse B16-F1 migrating cells assessed as fold change in Nid2-RNA stability at 0.1 mM measured by ChIP-seq analysis relative to control cells
[30] = molecular target: T1, RNA polymerase II (Mus musculus); test: Inhibition of RNA polymerase II in mouse B16-F1 migrating cells assessed as fold change in Gm44250-RNA stability at 0.1 mM measured by ChIP-seq analysis relative to control cells

`CCCc1cc(C)[nH]c(=O)c1CNC(=O)c1cc(-c2ccnc(N3CCN(C)CC3)c2)cc2c1cnn2C(C)C` was tested, and the log2FC [1] was -0.35, the log2FC [2] was -0.66 and the log2FC [3] was 0.83. For the same molecule, the log2FC [4] was 0.56, the log2FC [5] was 0.44 and the log2FC [6] was -0.41. For the same molecule, the log2FC [7] was -0.47, the log2FC [8] was -0.53 and the log2FC [9] was -0.58. The log2FC [10] was -0.61, the log2FC [11] was -0.61 and the log2FC [12] was -0.95.

Molecule `OC[C@H]1O[C@@H](n2cnc3cc(Cl)c(Cl)cc32)[C@H](O)[C@@H]1O` has a log2FC [13] of 1.12, a log2FC [14] of 0.72 and a log2FC [15] of 0.64. For the same molecule, the log2FC [16] was 0.55, the log2FC [17] was 0.51 and the log2FC [18] was 0.48. For the same molecule, the log2FC [19] was 0.43, the log2FC [20] was 0.41 and the log2FC [21] was 0.41. It also gave a log2FC [22] of 0.4, a log2FC [23] of -0.52 and a log2FC [24] of -0.52. It also gave a log2FC [25] of -0.54, a log2FC [26] of -0.63 and a log2FC [27] of -0.66. It also gave a log2FC [28] of -0.67, a log2FC [29] of -0.83 and a log2FC [30] of -0.93.
